The whole screen tested about 310,000 compounds, of which about 17,000 (5.5%) were called active. Inconclusive results, whose numbers are uncertain, are shown with a selection of clear calls. The call rests on the fitted dose curve; in most records, active means well fitted inhibition curve with a large enough effect; inconclusive means small, poorly fitted or top-dose-only effect, or effect the other way; inactive means no such curve, though single readings can be large or run the other way. Where the call is inconclusive, the potency comes from a doubtful curve fit.
Each molecule was assayed against Nuclear receptor ROR-gamma (Mus musculus) (UniProt P51450) (assay: qHTS for inhibitors of ROR gamma transcriptional activity). Conditions: Drosophila S2 Gal4-RORgamma UAS-luciferase reporter, 20 h; activity change, negative = inhibition: at 53.6 µM (top of the series).
Outline: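 ROR gamma transcriptional activity was tracked as Gal4-UAS luciferase output in stably transfected Drosophila Schneider cells, with compound added 1 hr before 700 uM copper sulfate induction and a 20 hr ambient-temperature incubation.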
Further: nearly all actives have a fitted effect of over 60% in size.
On the % scale 0 is the no-effect control and ±100 the full control effect; potency means the concentration at half of the fitted maximal effect.

Sequences of proteins named here, by UniProt entry; tags and fusion partners are left off. A change or cut given only in a name is not applied to a line headed by its entry.
UniProt P51450: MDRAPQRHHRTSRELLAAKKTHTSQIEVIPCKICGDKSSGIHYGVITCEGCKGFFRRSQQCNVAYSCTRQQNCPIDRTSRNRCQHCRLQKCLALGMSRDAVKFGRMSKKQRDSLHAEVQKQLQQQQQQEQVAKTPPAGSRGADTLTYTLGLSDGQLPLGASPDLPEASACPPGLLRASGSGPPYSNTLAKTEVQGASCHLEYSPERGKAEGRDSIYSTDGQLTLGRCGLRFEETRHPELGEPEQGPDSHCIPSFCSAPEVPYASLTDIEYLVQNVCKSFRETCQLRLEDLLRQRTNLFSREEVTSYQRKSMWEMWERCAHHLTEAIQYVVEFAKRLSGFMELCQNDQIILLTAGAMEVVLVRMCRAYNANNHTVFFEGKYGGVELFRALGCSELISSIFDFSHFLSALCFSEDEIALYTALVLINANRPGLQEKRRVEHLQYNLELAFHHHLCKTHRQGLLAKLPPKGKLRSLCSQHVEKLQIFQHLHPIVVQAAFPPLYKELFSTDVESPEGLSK

| SMILES | Potency | activity change, negative = inhibition |
| --- | --- | --- |
| CCC(=O)N1CCN(c2cc(C)ccc2C)CC1 | inconclusive: 1.58 µM [inhibitor, partial curve] |  |
| COc1cc(NC(=O)CCN2CCN(C/C=C/c3ccccc3)CC2)cc(OC)c1 | inconclusive: 12.6 µM [activator, partial curve] |  |
| O=C(Nc1cnccn1)C1c2ccccc2Oc2ccccc21 | inconclusive: 22.4 µM [inhibitor, single point] |  |
| O=c1c2cc(-c3ccccc3)sc2nc2n1N=C(c1cccs1)CS2 | inconclusive: 3.55 µM [inhibitor, single point] |  |
| CCCC(=O)NC(=S)Nc1nc(-c2ccc(OC)cc2)cs1 | active: 8.91 µM |  |
| C#CC[N+]1(CC#Cc2ccc(C)cc2)CCCCC1 |  | inactive: -2.12% |
| CCSc1nnc(-c2cccc(S(=O)(=O)N(C)C)c2)n1-c1cc(OC)ccc1OC |  | inactive: 0.229% |
| CC#CC[N+](C)(CC#CC)CC(=O)c1ccccc1 |  | inactive: -23% |
| Cc1ccc(CNc2ncccc2-c2nc3cc(Cl)ccc3o2)cc1 | inconclusive: 1.26 µM [activator, full curve, poor fit] |  |
| S=C1NC[C@H](Cc2ccccc2)N1CCCCC1CCCCC1 | active: 0.708 µM |  |
| CCCCN1C(=S)NC[C@@H]1C(C)CC (some centres not stated) | active: 3.55 µM |  |
| CCOC(=O)c1c(C)[nH]c(C(=O)OCc2ccc(F)cc2)c1C | inconclusive: 2 µM [activator, partial curve] |  |
| Cc1ccc(CCNC(=O)NC(C)(C)C)cc1 | inconclusive: 11.2 µM [activator, single point] |  |
| COCCNC(=O)C1CCCN(S(=O)(=O)c2c(C)noc2/C=C/c2cccs2)C1 (configuration not stated) | inconclusive: 14.1 µM [activator, single point] |  |
| O=C(NC(=S)NCc1ccc(F)cc1)c1ccccc1 | active: 5.01 µM |  |
| O=C(NC(=S)N1CCOCC1)C12CCC3CC(CC(C3)C1)C2 | active: 1.26 µM |  |
| COc1cccc(-c2nnc3n2N=C(c2ccc(OC)cc2OC)CS3)c1 | inconclusive: 22.4 µM [inhibitor, single point] |  |
| O=C(CSc1nnc(-c2cccc(Br)c2)o1)N1CCOCC1 |  | inactive: -5.17% |
| CCC(=O)Nc1cccc(NC(=S)NC(=O)c2cccc(C)c2)c1 | inconclusive: 22.4 µM [inhibitor, single point] |  |
| CCC(CC)COC(=O)C1=C(C)NC(=O)NC1c1ccc2c(c1)OCO2 (configuration not stated) | inconclusive: 10 µM [activator, partial curve] |  |
| COc1ccc(OC)c(/C=N\NC(=O)c2cc3c(ccc4ccccc43)o2)c1 |  | inactive: -35.9% |
| Oc1ccc(N=Cc2ccc(O)c(O)c2)cc1 | active: 4.47 µM |  |
| O=C(Nc1ccccn1)c1csc2c1CCCC2 |  | inactive: -26.2% |
| Cc1ccc(CCc2nnc(SCC(=O)Nc3ccccc3Cl)n2-c2ccccc2)o1 | inconclusive: 35.5 µM [activator, single point] |  |
| CCc1ccccc1OC[C@@H](O)CN[C@H]1CCCc2ccccc21 | active: 7.08 µM |  |
| COc1ccc(-c2nc(-c3ccccc3)c(-c3cc([N+](=O)[O-])ccc3C)[nH]2)cc1O | inconclusive: 35.5 µM [inhibitor, single point] |  |

| SMILES | Potency | activity change, negative = inhibition |
| --- | --- | --- |
| CN(C)/C=C1\C(=O)N(c2ccc([N+](=O)[O-])cc2)N=C1c1ccccc1 | inconclusive: 35.5 µM [inhibitor, single point] |  |
| C=C(C)c1cccc(C(C)(C)NC(=O)N2CCN(CC)CC2)c1 | inconclusive: 0.355 µM [inhibitor, full curve] |  |
| Cc1cc(C)nc(SCc2cn3c(C)cccc3n2)n1 | inconclusive: 12.6 µM [inhibitor, partial curve] |  |
| NNc1nc(-c2ccccc2)cc(-c2ccc(Br)cc2)n1 | active: 17.8 µM |  |
| CCCCc1ccc(Nc2ncnc3nc[nH]c23)cc1 | inconclusive: 4.47 µM [activator, partial curve] |  |
| Cc1c(NC(=O)c2ccc(Cl)nc2)cccc1-c1nc2cccnc2s1 | inconclusive: 17.8 µM [activator, single point] |  |
| CC(C)OC(=O)c1nnn(-c2nonc2N)c1CN1CCc2ccccc2C1 |  | inactive: 24.2% |
| COc1ccc(CN(CC(=O)NCc2ccc(F)cc2)C(=O)CCC(=O)Nc2ccccn2)cc1 |  | inactive: 10.6% |
| O=C(CSc1nnc2n1CCCN2C(=S)Nc1ccc(Cl)cc1)c1ccccc1 | inconclusive: 35.5 µM [inhibitor, partial curve, poor fit] |  |
| C/C(=N\NC(=O)c1nnn(-c2nonc2N)c1C(C)C)c1ccc2ccccc2c1 | inconclusive: 6.31 µM [inhibitor, single point] |  |
| O=C(CN(Cc1ccc(F)cc1)C(=O)Cn1nnc2ccccc21)NCC1CCCO1 (configuration not stated) |  | inactive: -45.4% |
| Cc1ccc(Sc2ccc(NC(=O)CCl)cc2)cc1C | inconclusive: 10 µM [inhibitor, partial curve, poor fit] |  |
| CCCn1c(CCNc2nc(-c3ccc(Cl)c([N+](=O)[O-])c3)cs2)nc2cc(Cl)c(Cl)cc21 | inconclusive: 20 µM [inhibitor, single point] |  |
| Cc1c(C#N)c(NC(=O)CCl)n(Cc2ccccc2)c1C | inconclusive: 35.5 µM [inhibitor, single point] |  |
| O=C(O)c1ccc(NNC(=S)Nc2cc(C(F)(F)F)ccc2Cl)cc1 | active: 3.16 µM |  |
| Cn1c(=O)oc2cc(S(=O)(=O)Nc3ccc4c(c3)OCCO4)ccc21 | inconclusive: 10 µM [activator, single point] |  |
| CCOC(=O)CNC(=S)N1CCn2c(nc3ccccc32)C1 | inconclusive: 11.2 µM [activator, single point] |  |
| CCc1c(O)nc(SCC(=O)Nc2ccc(Br)cc2)n(-c2ccc(C)cc2)c1=O |  | inactive: -23.1% |
| O=C(c1cccs1)N1CCN(c2ccc(F)cc2)CC1 |  | inactive: 1.47% |
| COc1ccc2cc(C(N)=O)/c(=N\NC(=O)c3ccccc3)oc2c1 | active: 12.6 µM |  |
| COc1ccc(N2CCN(Cc3nc(-c4ccc(Cl)cc4Cl)no3)CC2)cc1 | inconclusive: 15.8 µM [activator, partial curve] |  |
| CC(=O)OCC(NC(=O)C(COCc1ccccc1)NC(=O)OC(C)(C)C)C1OC(n2cc(F)c(=O)[nH]c2=O)C(OC(C)=O)C1OC(C)=O (configuration not stated) |  | inactive: 3.49% |
| COCCCn1c(=O)/c(=C\c2ccc(OC(F)F)c(OC)c2)s/c1=C(/C#N)C(N)=O |  | inactive: 16.6% |
| CN(Cc1ccon1)C(=O)CC1C(=O)NCCN1Cc1cccc(Oc2ccccc2)c1 (configuration not stated) |  | inactive: 6.97% |
| Cc1cc(C(F)F)n2ncc(C(=O)NCc3ccccc3C(F)(F)F)c2n1 | inconclusive: 35.5 µM [activator, single point] |  |
| CCNCc1nc2cc(Cl)ccc2c(=O)[nH]1 | active: 6.31 µM |  |

4 compounds drawn at random from those above, as already listed:

| SMILES | Potency | activity change, negative = inhibition |
| --- | --- | --- |
| CC(C)OC(=O)c1nnn(-c2nonc2N)c1CN1CCc2ccccc2C1 |  | inactive: 24.2% |
| O=C(CSc1nnc2n1CCCN2C(=S)Nc1ccc(Cl)cc1)c1ccccc1 | inconclusive: 35.5 µM [inhibitor, partial curve, poor fit] |  |
| Cc1c(NC(=O)c2ccc(Cl)nc2)cccc1-c1nc2cccnc2s1 | inconclusive: 17.8 µM [activator, single point] |  |
| CCNCc1nc2cc(Cl)ccc2c(=O)[nH]1 | active: 6.31 µM |  |

Additional entries

| SMILES | Potency | activity change, negative = inhibition |
| --- | --- | --- |
| Cc1ccc(Oc2ccc(NC(=O)CSc3n[nH]c(N)n3)cc2)cc1 | inconclusive: 17.8 µM [activator, partial curve] |  |
| CCC(=O)Oc1ccc(C(=O)Nc2cccc(C(=O)c3ccccc3)c2)cc1 |  | inactive: -22.3% |
| CCOc1cccc(CNc2ccc(O)cc2)c1OCc1ccc(Cl)cc1Cl | active: 15.8 µM |  |
| CNC(=S)NNc1ccccc1[N+](=O)[O-] | active: 15.8 µM |  |
| CCOc1ccc(-c2csc(NC(=O)C3CCCO3)n2)cc1 (configuration not stated) |  | inactive: 5.15% |
| COC(=O)c1oc2ccccc2c1-n1cccc1 |  | inactive: -1.61% |
| COc1cc(Br)cc(/C=C/c2ccc3cccc(O)c3n2)c1OC | active: 2.51 µM |  |
| COC(=O)CS(=O)(=O)c1nnc([C@H](Cc2ccccc2)NC(=O)OC(C)(C)C)o1 | inconclusive: 28.2 µM [inhibitor, single point] |  |
| COc1ccc(C(=O)N/C(=C\c2ccccc2)C(=O)NCCCn2ccnc2)cc1 | inconclusive: 35.5 µM [inhibitor, single point] |  |
| CN(Cc1cccnc1)C(=O)c1cc(COc2ccc3ncccc3c2)on1 | active: 4.47 µM |  |
| O=C(/C=C/c1cccnc1)c1ccc([N+](=O)[O-])cc1 | inconclusive: 25.1 µM [inhibitor, single point] |  |
| CC(=O)Nc1ccc(Nc2cc(C)nc3c(-c4ccc(Cl)cc4)cnn23)cc1 | inconclusive: 35.5 µM [inhibitor, single point] |  |
| CC1COc2ccccc2N1C(=O)c1ccccc1Cl (configuration not stated) |  | inactive: 24.2% |
| COCCn1cnc2cc(C)c(C)cc21 | inconclusive: 22.4 µM [inhibitor, single point] |  |
| O=C(O)c1ccccc1C(=O)Nc1ccc(Oc2cccc3ccccc23)cc1 |  | inactive: 2.55% |
| COc1ccccc1N1C(=NC(=O)CCC2CCCC2)SC2CS(=O)(=O)CC21 (configuration not stated) |  | inactive: -1.3% |
| CCN(CC)C(=O)c1ccc(-c2nnc(Nc3ccc(C(=O)N(C)C)cc3)c3ccccc23)cc1 | inconclusive: 1.58 µM [activator, partial curve] |  |
| COc1ccc(CN2C(=O)C(C)Oc3ccccc32)cc1 (configuration not stated) |  | inactive: 14.4% |
| Fc1cc(Br)ccc1NC(=S)NCCc1ccccc1 | active: 7.94 µM |  |
| Cc1ccc(C(=O)Nc2cccc(C(=O)N/N=C/c3ccccc3F)c2)cc1 | inconclusive: 2.51 µM [inhibitor, partial curve, poor fit] |  |
| CS(=O)(=O)N(CC(=O)N1CCN(Cc2ccc3c(c2)OCO3)CC1)Cc1ccc(Cl)cc1 |  | inactive: -20% |
| Cc1[nH]c(C)c(S(=O)(=O)N2CCN(c3ccccc3F)CC2)c1C(=O)N1CCCCC1 |  | inactive: 8.62% |
| COc1cccc(NC(=O)c2ccccc2-c2nc(-c3ccccc3)no2)c1 | inconclusive: 3.55 µM [activator, partial curve] |  |
| COc1ccc(/C=C/C(=O)c2cc(F)ccc2OC(=O)c2ccccc2OC)cc1OC |  | inactive: 17.6% |
| Cn1c(-c2ccccc2O)cc2ccccc21 | inconclusive: 2.24 µM [activator, partial curve, poor fit] |  |
